# The whole screen tested about 6,900 compounds, of which fewer than 10 were called active. The call rests on the fitted dose curve; in most records, active means well fitted curve in the direction sought with a large enough effect; inconclusive means small, poorly fitted or top-dose-only effect, or another doubt; inactive means no such curve, though single readings can be large or run the other way. This is one part of the list.
# By UniProt entry, the sequences of proteins in these tests, tags left out. Where a name states a change or a piece, a line headed by the entry shows the natural chain unless it says otherwise.
# UniProt C7C422: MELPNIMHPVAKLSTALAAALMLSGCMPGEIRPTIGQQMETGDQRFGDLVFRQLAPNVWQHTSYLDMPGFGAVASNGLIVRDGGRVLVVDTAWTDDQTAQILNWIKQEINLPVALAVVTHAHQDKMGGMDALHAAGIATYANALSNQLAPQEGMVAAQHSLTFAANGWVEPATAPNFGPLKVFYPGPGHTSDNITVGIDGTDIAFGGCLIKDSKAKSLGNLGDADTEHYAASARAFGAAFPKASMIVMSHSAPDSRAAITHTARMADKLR
# Biological target: Metallo-beta-lactamase type 2 (Klebsiella pneumoniae) (UniProt C7C422)
# Experiment: qHTS to identify inhibitors of the New Delhi Metallo-beta-lactamase (NDM): primary screen against the NCATS Gemini Collection; further: % of control where 0% means no effect
# Conditions: NDM-1 enzyme, meropenem hydrolysis, absorbance 300 nm; at 38.4 µM (top of the series) unless noted
# Method in brief: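 NDM-1 at 2 nM final in 50 mM HEPES pH 7.0, 1 uM ZnSO4, 0.01% Tween20, preincubated >30 min with compound. Meropenem 50 uM final added; absorbance at 300 nm after 30 min.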
row,Compound,activity % (negative = inhibition)
1,NC(=O)c1cc2c(nc1CCC1COc3ccccc3O1)CCC2 (centres undefined),inactive: -1.46%
2,COc1ccc(C(=O)N2C(C(=O)N3CCCC3)COC23CCN(C(=O)C2CCC2)CC3)cc1 (centres undefined),inactive: 20.8%
3,O=C(NC1CCN(c2cc(N3CCOCC3)cnn2)C1)C1CC1 (centres undefined),inactive: 49.2%
4,CCn1c(CO)nnc1C1CC(NC(=O)c2nn(C)c(C)c2Cl)C1 (centres undefined),inactive: -2.63%
5,COc1cccc(CN2CCCC3(CCN(c4cc(C)nc(N)n4)C3)C2)c1OC (centres undefined),inactive: 1.37%
6,C[C@H](C(=O)NCCN1CCOCC1)C1CC[C@@]2(C)Cc3sc(CS(=O)(=O)C(C)(C)C)nc3[C@@H](C)[C@@H]2[C@H]1O (some centres undefined),inactive: -3.51%
7,Cc1nc(N2CCC(NC(=O)c3cccnc3)CC2)cc(C(F)(F)F)n1,inactive: 14.3%
8,CNC(=O)[C@@H]1CN(S(=O)(=O)C(C)C)C[C@H]1c1n[nH]c(C)n1,inactive: 0.0968%
9,CCn1nc(C)c(-c2cc(C(=O)N3CCC(CCOc4ccccc4OC)C3)no2)c1C (centres undefined),inactive: 3.67%
10,Cc1ncsc1C(=O)N1CC(CNC(=O)C2CC2)C2(C1)CN(c1ccccc1)C2 (centres undefined),inactive: -0.697% [at 57.5 µM]
11,Cc1ccc2[nH]c(CCC(=O)N3CC[C@H](CO)[C@H](O)C3)nc2c1C,inactive: 40.7%
12,COc1cccc(CCN(Cc2cccc(C)c2)C(=O)[C@H]2CCC[C@H](O)C2)c1,inactive: 2.4%
13,O=C(Nc1nn(-c2cccc(F)c2)c2cccc(N3CCOCC3)c12)C1CCC1,inactive: 2.65%
14,CCN1CCCN(S(=O)(=O)c2cccs2)CC12CCOCC2,inactive: 0.121%
15,COc1ccc(NC(=O)N2CC(N(C3CCOCC3)S(C)(=O)=O)C2)cc1F,inactive: 1.6%
16,COCC1CN(Cc2ccc(Br)s2)CC12CCNCC2 (centres undefined),inactive: -0.815%
17,CC(C)c1ccc(C(O)Cn2ccn3nc(-c4ccc(F)cc4)cc3c2=O)cc1 (centres undefined),inactive: -7.5%
18,O=C1N(C2CCCCC2)C[C@H]2CN(S(=O)(=O)c3ccccc3)CCN12,inactive: 0.953% [at 57.5 µM]
19,CC(=O)N1Cc2ccccc2CC2(CCN(Cc3ccc(O)cc3)CC2)C1,inactive: -0.861%
20,O=C(c1ccccn1)N1CCC2(CC(c3cccc(C(F)(F)F)c3)=NO2)C1 (centres undefined),inactive: -1.57%
21,CNC(=O)N1CCC(C2CCN(Cc3ccc(Br)o3)C2)CC1 (centres undefined),inactive: 0.431%

# Structures shown so far with a thiophene ring, fused or not (2):
row,Compound,activity % (negative = inhibition)
14,CCN1CCCN(S(=O)(=O)c2cccs2)CC12CCOCC2,inactive: 0.121%
16,COCC1CN(Cc2ccc(Br)s2)CC12CCNCC2 (centres undefined),inactive: -0.815%

# Two entries from above, reformatted:
row	Compound	activity % (negative = inhibition)
17	CC(C)c1ccc(C(O)Cn2ccn3nc(-c4ccc(F)cc4)cc3c2=O)cc1 (centres undefined)	inactive: -7.5%
18	O=C1N(C2CCCCC2)C[C@H]2CN(S(=O)(=O)c3ccccc3)CCN12	inactive: 0.953% [at 57.5 µM]

# Additional entries

row,Compound,activity % (negative = inhibition)
1,Cn1nccc1C(O)c1cc2n(n1)CCN(CC(=O)NCc1ccco1)C2 (centres undefined),inactive: 0.962%
2,COCCOC1CN(C2CCN(S(C)(=O)=O)CC2)C12CCCCC2 (centres undefined),inactive: 1.22%
3,O=C(NCc1ccco1)[C@@H]1Cc2nc[nH]c2CN1CCCc1ccccc1,inactive: -2.66% [at 57.5 µM]
4,COc1cccc(-c2noc(-c3ccc(-c4cn[nH]c4)nc3)n2)c1OC,inactive: 0.249%
5,COc1ccccc1-n1cnc2cccnc21,inactive: -7.86% [at 77.1 µM]
6,CC(Cn1cncn1)Nc1ccc(-c2nc(Cc3ccc(F)cc3)no2)cn1 (centres undefined),inactive: 73.8%
7,O=C(NCc1ccc(F)cc1)c1cnc2n[nH]c(-c3ccccc3)c2n1,inactive: 25.5% [at 57.5 µM]
8,O=C(c1ccncc1)N1CCC(Nc2cccnc2)C1 (centres undefined),inactive: 4.62%
9,COCC(=O)N1CCC(C2CCN(C(=O)c3ccncc3)CC2)C1 (centres undefined),inactive: -0.46%
10,c1coc(-c2nnc([C@H]3CCN(Cc4c[nH]c5ccccc45)C3)o2)c1,inactive: 37.1% [at 57.5 µM]
11,CN1CCC(NC(=O)CC2(Cc3ccccc3)C(=O)N(C)c3ccccc32)CC1 (centres undefined),inactive: 28.8%
12,CSCCCN1CC[C@@H](NC(=O)c2ccncc2)[C@H](O)C1,inactive: 8.59%
13,Cc1cc2ncc(C(=O)NCc3ccccc3Cl)cn2n1,inactive: -0.309% [at 57.5 µM]
14,O=C(C1CC1)N1CCC(Cc2noc(-c3ccncc3)n2)C1 (centres undefined),inactive: 1.23%
15,c1cncc(-c2nnc3n2CCN(Cc2ccsc2)C3)c1,inactive: 45.6% [at 57.5 µM]
16,COc1ccc(C(=O)N2CC[C@H](c3nnc(-c4ccccc4)o3)C2)cc1,inactive: 4.86% [at 57.5 µM]
17,O=c1[nH]nc2n1CCN(CC1CCCCC1)CC2,inactive: 5.08%
18,COCCOCc1nc(C2CCCN2C(=O)c2ccccn2)no1 (centres undefined),inactive: 10.5%
19,CN1CCN(c2cc(N3CCCC(CN4CCCCC4)C3)nc(N)n2)CC1 (centres undefined),inactive: -3.94%
20,COCCn1c(=O)n([C@H]2CCCN(C(=O)NCCc3ccccc3)C2)c2ncccc21,inactive: 10%
21,CCc1nc(CN2CCC(N3CCCC(C(=O)NCc4ccccn4)C3)CC2)no1 (centres undefined),inactive: -0.828%

row,Compound,activity % (negative = inhibition)
1,CN1CCC(N2CCC[C@H]2c2nc(-c3ccc(OC4CCCCC4)nc3)no2)CC1,inactive: 1.94% [at 57.5 µM]
2,Cc1cnc(CCNC(=O)c2n[nH]c(=O)c3ccccc23)n1C1CCCCC1,inactive: 24.7%
3,O=C(NCCc1ccc(F)cc1)c1cc(-c2ccccc2)c2nncn2n1,inactive: 18%
4,CCC(c1cnn(C)c1)n1ccnc1-c1cc(F)c(OC)c(Cl)c1 (centres undefined),inactive: 0.927%
5,O=C(N1CCCCCC1)C1(CCO)CCN(c2ncccn2)C1 (centres undefined),inactive: 3.73%
6,Cc1cc(=O)oc2cc(CN(C)CC(C)N3CCOCC3)ccc12 (centres undefined),inactive: 0.386%
7,O=C1N(c2ccccc2)c2ccccc2C12CCN([S+](=O)([O-])c1cccc(C(F)(F)F)c1)C2 (centres undefined),inactive: 0.178%
8,CC1(C)[C@H]2CC[C@@H](CNC(=O)c3cncc(Br)c3)[C@@H]1C2,inactive: -5.51%
9,CCCn1ncc(CN2CCC(Cc3cccc(C(F)(F)F)c3)(C(=O)OCC)CC2)c1C,inactive: -4.63%
10,Cc1noc(C)c1C(=O)N1CCC2(CC1)CN(C(=O)Cc1cccc(Cl)c1)CCO2,inactive: 6.19%
11,CNC(=O)[C@@H](C1CC1)N1CCC[C@H]1C(=O)N1CCC(C)CC1,inactive: 79.2% [at 57.5 µM]
12,COCCN(C)Cc1cn(Cc2ccccc2)nc1-c1ccc2c(c1)OCO2,inactive: 20.6%
13,C=CCNC(=O)N[C@H]1CO[C@H]2[C@@H]1OC[C@@H]2Nc1nccc(-c2cccc(F)c2)n1,inactive: 2.05% [at 57.5 µM]
14,Cc1nn2c(c1-c1ccnn1C(C)C)N(Cc1ccc3c(c1)CCO3)CCC2,inactive: -4.9% [at 57.5 µM]
15,Cn1cc(CN2CCN3C(=O)N(C4CCCCC4)C[C@H]3C2)cn1,inactive: 49.6% [at 57.5 µM]
16,Cc1cc(-c2nn(-c3ccccc3F)cc2CN(C)C(C)c2ccon2)c(C)s1 (centres undefined),inactive: 4.52%
17,CNc1cc(C2CC(Nc3nc(N)nc(C)c3Cl)C2)nc(COC)n1 (centres undefined),inactive: 10.4%
18,CCOC(=O)C1c2c(OC)ccc3c2C(=CC(C)(C)CO3)CN1C(=O)C1CC1 (centres undefined),inactive: 2.76%
19,O=C(c1ccc(C2CCCNC2)cc1)N1CCC(Oc2cccc(F)c2)CC1 (centres undefined),inactive: -10%
20,C#CCNC(=O)C[C@@H]1c2nc(NC(=O)OCC=C)sc2C[C@@H]2[C@](C)(CO)[C@H](O)CC[C@]21C,inactive: 17.3%
21,O=C(C1CCCN1Cc1ccc(-c2cncnc2)cc1)N1CCOCC1 (centres undefined),inactive: 4.93%

# Structures listed so far that have two or more sulfur atoms:
row,Compound,activity % (negative = inhibition)
6,C[C@H](C(=O)NCCN1CCOCC1)C1CC[C@@]2(C)Cc3sc(CS(=O)(=O)C(C)(C)C)nc3[C@@H](C)[C@@H]2[C@H]1O (some centres undefined),inactive: -3.51%
14,CCN1CCCN(S(=O)(=O)c2cccs2)CC12CCOCC2,inactive: 0.121%

# Next part

row,Compound,activity % (negative = inhibition)
1,CCOc1ccccc1NC(=O)Nc1cccc(-c2ccc(N3CCCC3)nn2)c1,inactive: 17.9%
2,COCC(=O)NC[C@H]1CCN(Cc2scnc2C)C[C@H]1N(C)C,inactive: 4.56%
3,Cc1nc2c(c(-c3ccc(O)cc3)n1)CN(C(=O)c1ccccc1C)CCC2,inactive: 4.15%
4,N[C@H]1CO[C@H]2[C@@H]1OC[C@@H]2n1cc(-c2ccccn2)nn1,inactive: -3.7% [at 77.1 µM]
5,Cc1cccc(C(C)(C)C)c1NC(=O)N1CCN2C(=O)CNC(=O)C2C1 (centres undefined),inactive: 0.554%
6,CN1CCN(c2ccc(-c3cc4c(ccn4C)c(C(=O)NCCC(N)=O)n3)cc2)CC1,inactive: 5.15% [at 57.5 µM]
7,CCC(C)NC(=O)C1COC2(CCC(C)CC2)N1C(=O)c1cccc(C)c1 (centres undefined),inactive: -11.6%
8,O=c1[nH]c(C2CCCN([S+](=O)([O-])c3cccc(C(F)(F)F)c3)C2)nn1-c1ccccn1 (centres undefined),inactive: 4.37%
9,O=C(CCC1CCCN(Cc2cc3ccccc3s2)C1)Nc1ccccc1F (centres undefined),inactive: 4.23%
10,CC(C)NC(=O)N1CCCC1c1noc(CCC(=O)NCC2CC2)n1 (centres undefined),inactive: -1.43%
11,N#Cc1ccc(CN2CC[C@H](c3nnc(Cc4ccccc4)o3)C2)cc1,inactive: -0.173% [at 57.5 µM]
12,CC(NC(=O)CNC(=O)c1cccc(-c2ccc(C(F)(F)F)cc2)c1)c1ccc(F)cc1 (centres undefined),inactive: 0.817%
13,COc1nccnc1NC1CCN(C(=O)Cc2c(C)noc2C)CC1,inactive: 11.3%
14,Cc1cc(-c2nc3ccncc3[nH]2)c(C)[nH]1,inactive: 9.64% [at 77.1 µM]
15,C[C@@H]1CN(C(=O)c2cnn(C)c2)CC[C@@]1(O)C1CCOCC1,inactive: 10.5%
16,COc1ccc(C(=O)N2CC[C@H](c3nc4ccccc4n3C)C2)cc1OC,inactive: 1.72% [at 57.5 µM]
17,COc1cccc(-c2ccc(CN3CCCC(N[S+](=O)([O-])c4c(C)noc4C)C3)cc2)c1 (centres undefined),inactive: 3.42%
18,COc1cccc2c1OCC(C(=O)N1CCC(c3noc(C)n3)CC1)C2 (centres undefined),inactive: -5.57%
19,CC(C)NC(=O)C[C@@H]1C[C@H]2O[C@H](CNCc3ccccc3C(F)(F)F)[C@@H](O)[C@H]2O1,inactive: -2.63% [at 57.5 µM]
20,C[C@]1(O)CCN(C(=O)c2ccc3c(c2)OCC(=O)N3)C[C@@H]1O,inactive: 8.18%
21,Cc1cc(-c2cc3c(cn2)N(C)CCN(C)C3)ccn1,inactive: 9.26% [at 77.1 µM]

# Source: PubChem BioAssay AID1794845 (National Center for Advancing Translational Sciences (NCATS), 2023)
